Assay results reported in PMC2737637.
Read-outs that look alike come from different tables or passages of the source. No constants are given. Whether binding was seen depends on the method and setting. In cells and extracts the contact can be indirect. Some entries that bind do so weakly or less than the wild type. For some assays here: Sequences can lack the tags named with a protein.

Chains of the proteins cited; added tags and fusions are not shown.
UniProt Q06413: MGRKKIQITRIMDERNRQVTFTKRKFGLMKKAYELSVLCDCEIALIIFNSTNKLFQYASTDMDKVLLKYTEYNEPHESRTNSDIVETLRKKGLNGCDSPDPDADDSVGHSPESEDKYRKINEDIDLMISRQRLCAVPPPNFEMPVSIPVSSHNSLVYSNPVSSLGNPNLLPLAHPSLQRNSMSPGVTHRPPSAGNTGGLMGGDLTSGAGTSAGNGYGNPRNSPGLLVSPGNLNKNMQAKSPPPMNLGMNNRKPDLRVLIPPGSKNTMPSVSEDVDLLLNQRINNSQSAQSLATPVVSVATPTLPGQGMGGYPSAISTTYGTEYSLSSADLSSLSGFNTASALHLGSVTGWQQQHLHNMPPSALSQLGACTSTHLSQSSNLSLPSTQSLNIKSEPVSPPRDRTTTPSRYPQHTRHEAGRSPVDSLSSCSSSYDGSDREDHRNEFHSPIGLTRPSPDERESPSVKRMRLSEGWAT
UniProt Q8CFN5: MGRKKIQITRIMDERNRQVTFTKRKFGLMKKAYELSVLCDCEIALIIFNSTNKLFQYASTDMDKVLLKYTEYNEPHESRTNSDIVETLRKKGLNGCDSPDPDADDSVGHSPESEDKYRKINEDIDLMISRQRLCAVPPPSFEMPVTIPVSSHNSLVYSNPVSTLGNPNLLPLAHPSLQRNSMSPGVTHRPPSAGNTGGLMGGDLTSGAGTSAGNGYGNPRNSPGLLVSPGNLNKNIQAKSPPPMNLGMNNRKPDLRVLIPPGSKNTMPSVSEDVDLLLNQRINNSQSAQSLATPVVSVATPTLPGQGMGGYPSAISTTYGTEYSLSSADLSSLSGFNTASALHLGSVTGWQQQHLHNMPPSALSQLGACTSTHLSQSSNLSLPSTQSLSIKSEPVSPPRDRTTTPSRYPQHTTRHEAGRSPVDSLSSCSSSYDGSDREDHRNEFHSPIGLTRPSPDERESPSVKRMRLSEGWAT

Experiments:
[1] = target: T1, V5-lipin-1α (UniProt Q91ZP3); assay: co-IP; HEK293A cells co-transfected, harvested after 48 h; lysis buffer 50 mM Tris pH 7.5, 250 mM NaCl, 1 mM EDTA, 1 mM EGTA, 0.5% Triton X-100, 10% glycerol; immunoprecipitation with anti-V5 agarose, five washes with lysis buffer; immunoblotting with anti-Gal4 or anti-Myc antibody
T1 sequence: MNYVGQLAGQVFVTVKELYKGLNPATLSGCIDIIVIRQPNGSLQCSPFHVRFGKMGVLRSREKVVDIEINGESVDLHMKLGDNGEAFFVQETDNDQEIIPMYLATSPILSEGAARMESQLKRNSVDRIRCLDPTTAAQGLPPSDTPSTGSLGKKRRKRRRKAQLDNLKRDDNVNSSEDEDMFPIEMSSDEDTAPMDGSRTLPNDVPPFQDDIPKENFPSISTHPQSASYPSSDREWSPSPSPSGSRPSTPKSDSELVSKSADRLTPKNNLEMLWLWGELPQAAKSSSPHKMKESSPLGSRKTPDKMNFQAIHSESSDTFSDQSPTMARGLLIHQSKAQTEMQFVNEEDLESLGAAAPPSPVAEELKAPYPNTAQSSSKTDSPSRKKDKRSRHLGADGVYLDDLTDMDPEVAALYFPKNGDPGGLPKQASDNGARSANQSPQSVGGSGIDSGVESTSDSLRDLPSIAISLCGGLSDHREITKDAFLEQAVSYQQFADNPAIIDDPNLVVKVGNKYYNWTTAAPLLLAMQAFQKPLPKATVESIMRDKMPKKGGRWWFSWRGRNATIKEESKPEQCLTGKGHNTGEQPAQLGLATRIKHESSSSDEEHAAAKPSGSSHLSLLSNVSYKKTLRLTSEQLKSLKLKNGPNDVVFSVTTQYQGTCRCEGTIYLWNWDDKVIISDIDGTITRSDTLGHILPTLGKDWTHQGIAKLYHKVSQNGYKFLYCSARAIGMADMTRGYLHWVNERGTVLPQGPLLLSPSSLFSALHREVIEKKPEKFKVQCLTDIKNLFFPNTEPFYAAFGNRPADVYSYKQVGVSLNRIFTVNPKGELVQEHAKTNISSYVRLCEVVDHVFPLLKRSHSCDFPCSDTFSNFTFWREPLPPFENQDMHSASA

[2] = target: T2, V5-lipin-1α-2KR (UniProt Q91ZP3); assay: as above
T2 sequence: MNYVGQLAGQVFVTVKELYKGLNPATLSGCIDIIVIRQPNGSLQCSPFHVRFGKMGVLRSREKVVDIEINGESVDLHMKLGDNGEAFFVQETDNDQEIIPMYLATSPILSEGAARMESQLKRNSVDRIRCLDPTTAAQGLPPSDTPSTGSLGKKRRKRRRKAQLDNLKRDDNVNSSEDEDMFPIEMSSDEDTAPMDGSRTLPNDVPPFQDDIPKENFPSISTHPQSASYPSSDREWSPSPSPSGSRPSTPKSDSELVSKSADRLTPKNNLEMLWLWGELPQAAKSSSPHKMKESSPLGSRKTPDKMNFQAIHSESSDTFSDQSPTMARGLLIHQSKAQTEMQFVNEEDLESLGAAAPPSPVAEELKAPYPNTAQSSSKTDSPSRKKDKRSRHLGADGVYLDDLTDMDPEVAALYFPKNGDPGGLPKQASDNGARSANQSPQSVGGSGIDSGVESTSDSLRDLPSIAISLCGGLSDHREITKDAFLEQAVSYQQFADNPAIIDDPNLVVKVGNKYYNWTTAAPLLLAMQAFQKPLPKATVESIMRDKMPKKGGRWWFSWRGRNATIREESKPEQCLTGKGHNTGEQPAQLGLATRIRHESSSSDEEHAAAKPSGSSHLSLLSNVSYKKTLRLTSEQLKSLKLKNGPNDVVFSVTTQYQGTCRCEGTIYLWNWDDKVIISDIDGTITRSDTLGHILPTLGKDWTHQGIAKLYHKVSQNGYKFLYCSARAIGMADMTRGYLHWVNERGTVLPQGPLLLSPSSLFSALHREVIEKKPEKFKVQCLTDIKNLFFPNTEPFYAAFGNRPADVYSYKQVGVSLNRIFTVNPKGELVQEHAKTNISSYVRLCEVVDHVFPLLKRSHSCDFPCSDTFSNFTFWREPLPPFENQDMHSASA

[3] = target: T3, lipin-1α (endogenous lipin-1 of mouse brain extract) (mouse (endogenous in mouse brain)) (UniProt Q91ZP3); assay: co-IP; mouse brain extract immunoprecipitated with anti-lipin-1 antibody or a control IgG; MEF2C in the immunoprecipitates detected by immunoblotting
T3 sequence: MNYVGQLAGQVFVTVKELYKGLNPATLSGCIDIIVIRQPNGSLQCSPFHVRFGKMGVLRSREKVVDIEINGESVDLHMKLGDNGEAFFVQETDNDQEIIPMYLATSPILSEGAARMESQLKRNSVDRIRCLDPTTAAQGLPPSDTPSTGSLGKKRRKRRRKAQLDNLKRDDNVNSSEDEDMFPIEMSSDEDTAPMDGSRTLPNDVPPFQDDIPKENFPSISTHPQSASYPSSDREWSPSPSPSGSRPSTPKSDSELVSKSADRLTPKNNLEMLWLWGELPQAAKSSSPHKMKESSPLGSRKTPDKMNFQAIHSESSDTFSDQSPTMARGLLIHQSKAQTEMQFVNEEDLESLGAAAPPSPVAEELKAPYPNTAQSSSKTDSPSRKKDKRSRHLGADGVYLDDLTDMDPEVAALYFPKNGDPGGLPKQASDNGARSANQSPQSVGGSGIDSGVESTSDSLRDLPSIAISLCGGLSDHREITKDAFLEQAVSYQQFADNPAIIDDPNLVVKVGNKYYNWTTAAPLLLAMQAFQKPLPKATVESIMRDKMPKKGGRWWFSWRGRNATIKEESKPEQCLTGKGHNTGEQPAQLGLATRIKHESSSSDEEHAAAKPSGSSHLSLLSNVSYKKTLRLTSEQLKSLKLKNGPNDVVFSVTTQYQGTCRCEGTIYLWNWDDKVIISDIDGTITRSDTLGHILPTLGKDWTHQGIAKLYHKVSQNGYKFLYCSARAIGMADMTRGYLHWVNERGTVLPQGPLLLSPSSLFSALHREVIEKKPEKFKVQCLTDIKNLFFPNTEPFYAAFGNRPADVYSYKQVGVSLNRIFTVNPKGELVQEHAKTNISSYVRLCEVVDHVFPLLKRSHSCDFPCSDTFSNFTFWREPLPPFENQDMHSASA

[4] = target: T1, V5-lipin-1α; assay: co-IP; HEK293A cells co-transfected, harvested after 48 h; lysis buffer 50 mM Tris pH 7.5, 250 mM NaCl, 1 mM EDTA, 1 mM EGTA, 0.5% Triton X-100, 10% glycerol; immunoprecipitation with anti-V5 agarose, five washes with lysis buffer; immunoblotting with anti-Gal4 or anti-Myc antibody; remark: listed apart in the source
[5] = target: T2, V5-lipin-1α-2KR; assay: as above; remark: listed apart in the source

Gal4-MEF2C (from UniProt Q06413 1-473) was tested, and the binding [1] was “binds” and the binding [2] was “binds”.

“endogenous MEF2C (mouse brain extract) (from UniProt Q8CFN5 1-474)” was tested, and the binding [3] was “binds”.

B1: Myc-PGC-1α (protein, UniProt O70343 1-797)
chain: MAWDMCSQDSVWSDIECAALVGEDQPLCPDLPELDLSELDVNDLDTDSFLGGLKWCSDQSEIISNQYNNEPANIFEKIDEENEANLLAVLTETLDSLPVDEDGLPSFDALTDGAVTTDNEASPSSMPDGTPPPQEAEEPSLLKKLLLAPANTQLSYNECSGLSTQNHAANHTHRIRTNPAIVKTENSWSNKAKSICQQQKPQRRPCSELLKYLTTNDDPPHTKPTENRNSSRDKCASKKKSHTQPQSQHAQAKPTTLSLPLTPESPNDPKGSPFENKTIERTLSVELSGTAGLTPPTTPPHKANQDNPFKASPKLKPSCKTVVPPPTKRARYSECSGTQGSHSTKKGPEQSELYAQLSKSSGLSRGHEERKTKRPSLRLFGDHDYCQSLNSKTDILINISQELQDSRQLDFKDASCDWQGHICSSTDSGQCYLRETLEASKQVSPCSTRKQLQDQEIRAELNKHFGHPCQAVFDDKSDKTSELRDGDFSNEQFSKLPVFINSGLAMDGLFDDSEDESDKLSYPWDGTQPYSLFDVSPSCSSFNSPCRDSVSPPKSLFSQRPQRMRSRSRSFSRHRSCSRSPYSRSRSRSPGSRSSSRSCYYYESSHYRHRTHRNSPLYVRSRSRSPYSRRPRYDSYEAYEHERLKRDEYRKEHEKRESERAKQRERQKQKAIEERRVIYVGKIRPDTTRTELRDRFEVFGEIEECTVNLRDDGDSYGFITYRYTCDAFAALENGYTLRRSNETDFELYFCGRKQFFKSNYADLDTNSDDFDPASTKSKYDSLDFDSLLKEAQRSLRR
In the case of B1, the binding [4] is reported as “binds” and the binding [5] is reported as “binds”.
